# This is one part of the list. The calls rarely recur for the same compound in another form.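 Kinases were expressed as nanoluciferase fusions in K562 cells and luminescence was read every 4 h between 2 and 18 h as percent of control, DMSO set to 100% and a positive control to 0%. A time point counts as decreased when the signal drops significantly (2 sigma). The hit call is the authors' own, does not follow from the count of time points alone, and its rule is not shown.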
# Protein sequences, listed by entry. Tags and fused reporters are not part of them. Lines headed by an entry give the natural chain unless they say otherwise; changes in a name come on top.
# UniProt P48729: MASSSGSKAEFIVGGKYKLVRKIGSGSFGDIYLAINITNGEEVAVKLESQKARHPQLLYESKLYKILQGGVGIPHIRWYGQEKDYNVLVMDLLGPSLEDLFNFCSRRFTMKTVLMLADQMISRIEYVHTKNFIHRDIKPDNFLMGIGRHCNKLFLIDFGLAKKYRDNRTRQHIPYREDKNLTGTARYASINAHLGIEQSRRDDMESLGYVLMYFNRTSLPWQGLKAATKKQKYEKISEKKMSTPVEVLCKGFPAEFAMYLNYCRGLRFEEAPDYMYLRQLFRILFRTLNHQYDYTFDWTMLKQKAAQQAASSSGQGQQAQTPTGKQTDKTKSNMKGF
# Target: CSNK1A1 (UniProt P48729)
# Assay: kinase-Nluc reporter destabilization hit call (1 = scored as downregulated) (binary); higher = compound decreases kinase abundance
# Settings: K562; 2-18 h
row,Structure (SMILES),kinase-Nluc reporter destabilization hit call
1,O=c1cc(O)c2ccccc2o1 [4-Hydroxycoumarin] (10 µM),inactive: 0
2,CCCCNc1nc(N)c2[nH]c(=O)n(Cc3ccc(C)nc3)c2n1 (10 µM),inactive: 0
3,CCCS(=O)(=O)Nc1ccc(F)c(-n2cc(-c3cncnc3)c3nc(N(C)C4CCN(CC)CC4)ccc32)c1F (2 µM),inactive: 0
4,C[C@H]1CC[C@]2(NC1)O[C@H]1C[C@H]3[C@@H]4CC[C@H]5C[C@@H](O[C@@H]6O[C@H](CO)[C@H](O[C@@H]7O[C@H](CO)[C@@H](O)[C@H](O[C@@H]8OC[C@@H](O)[C@H](O)[C@H]8O)[C@H]7O[C@@H]7O[C@H](CO)[C@@H](O)[C@H](O)[C@H]7O)[C@H](O)[C@H]6O)CC[C@]5(C)[C@H]4CC[C@]3(C)[C@H]1[C@@H]2C [Tomatine] (2.5 µM),inactive: 0
5,Cc1n[nH]cc1-c1cc2nc([C@@H]3CC4CCN3CC4)[nH]c(=O)c2s1 [Simurosertib] (2.5 µM),inactive: 0
6,O=Cc1cn(Cc2ccc(Cl)cc2)c2ccccc12 [Oncrasin-1] (10 µM),inactive: 0
7,CC(=O)OC(C)(C)/C=C/C(=O)[C@](C)(O)[C@H]1[C@H](O)C[C@@]2(C)[C@@H]3CC=C4[C@@H](C=C(O)C(=O)C4(C)C)[C@]3(C)C(=O)C[C@]12C [Cucurbitacin E] (2.5 µM),inactive: 0
8,C[C@@H]1CC[C@H]2[C@@H](C)C(=O)O[C@@H]3O[C@@]4(C)CC[C@@H]1[C@]32OO4 [Artemisinin] (10 µM),inactive: 0
9,COc1ccc2c(c1)/C(=C/c1cnc[nH]1)C(=O)N2 (2.5 µM),inactive: 0
10,CC(=O)O[C@H]1[C@H]2[C@@H](OC(=O)Cc3ccccc3)[C@@H](C)C[C@]2(OC(C)=O)C(=O)/C(C)=C/[C@@H]2[C@H](CC[C@@]13CO3)C2(C)C [Euphorbiasteroid] (10 µM),inactive: 0
11,O=c1[nH]c2ccccc2n1C1CCN(CCCC(c2ccc(F)cc2)c2ccc(F)cc2)CC1 [Pimozide] (2.5 µM),inactive: 0
12,CC(=O)Oc1ccc(/C=C/c2cc(OC(C)=O)cc(OC(C)=O)c2)cc1 [Triacetylresveratrol] (10 µM),inactive: 0
13,C/C=C(/C)C(=O)O[C@H]1[C@@H]2[C@H](C)C(=O)O[C@@H]2C[C@@H](C)[C@@H]2C=CC(=O)[C@]21C [Brevilin A] (2.5 µM),inactive: 0
14,O=[N+]([O-])/C=C/c1ccc2c(c1)OCO2 (2.5 µM),inactive: 0
15,O=C(O)c1nn(Cc2ccc(Cl)cc2Cl)c2ccccc12 [Lonidamine] (10 µM),inactive: 0
16,CC(=O)c1c(O)c(C)c(O)c(Cc2c(O)c3c(c(C(=O)/C=C/c4ccccc4)c2O)OC(C)(C)C=C3)c1O [Rottlerin] (2 µM),inactive: 0
17,Cn1cc(C2=C(c3cn(C4CCN(Cc5ccccn5)CC4)c4ccccc34)C(=O)NC2=O)c2ccccc21 [Enzastaurin] (10 µM),inactive: 0
18,Cc1ccccc1-n1c(Cn2ncc3c(N)ncnc32)nc2cccc(C)c2c1=O (10 µM),inactive: 0
19,O=c1[nH]c2ccccc2n1C1CCN(Cc2ccc(-c3[nH]c4cc5ncnc5cc4nc3-c3ccccc3)cc2)CC1 [AKT inhibitor VIII] (2.5 µM),inactive: 0
20,C=CC(=O)Nc1ccc2[nH]c(=O)n(C3CCN(Cc4ccc(-c5nc6cc[nH]c(=O)c6cc5-c5ccccc5)cc4)CC3)c2c1 [Borussertib] (10 µM),inactive: 0
21,C[S+]([O-])/C=C/CCN=C=S (centres undefined) [Sulforaphene] (10 µM),inactive: 0
22,CC1=C[C@]23C(=O)[C@@H](C=C(CO)[C@@H](O)[C@]2(O)[C@H]1O)[C@H]1[C@@H](C[C@H]3C)C1(C)C [Ingenol] (10 µM),inactive: 0
23,CCCCCCCCCCCCCCCCOC[C@H](COP(=O)([O-])OCC[N+](C)(C)C)OC(C)=O (10 µM),inactive: 0
24,Cc1ccccc1-n1c(Cn2cnc3c(N)ncnc32)nc2cccc(C)c2c1=O (10 µM),inactive: 0
25,COc1ccc2c(c1)[nH]c1c(C)nccc12 [Harmine] (10 µM),inactive: 0
26,O=C(N[C@@H](COc1ccc2[nH]c(=O)[nH]c2c1)c1ccccc1)c1cccn(Cc2ccc(F)c(F)c2)c1=O (2.5 µM),inactive: 0
27,COc1cc2c(cc1F)C(c1ccccc1Cl)=Nc1c(n[nH]c1C)N2 (0.5 µM),inactive: 0
28,N#CC(C#N)=Cc1ccc(O)c(O)c1 [Tyrphostin 23] (10 µM),inactive: 0
29,N#CC(C#N)=NNc1cccc(Cl)c1 (2.5 µM),inactive: 0

# From entry 8 up to 15, copied from above:
row,Structure (SMILES),kinase-Nluc reporter destabilization hit call
8,C[C@@H]1CC[C@H]2[C@@H](C)C(=O)O[C@@H]3O[C@@]4(C)CC[C@@H]1[C@]32OO4 [Artemisinin] (10 µM),inactive: 0
9,COc1ccc2c(c1)/C(=C/c1cnc[nH]1)C(=O)N2 (2.5 µM),inactive: 0
10,CC(=O)O[C@H]1[C@H]2[C@@H](OC(=O)Cc3ccccc3)[C@@H](C)C[C@]2(OC(C)=O)C(=O)/C(C)=C/[C@@H]2[C@H](CC[C@@]13CO3)C2(C)C [Euphorbiasteroid] (10 µM),inactive: 0
11,O=c1[nH]c2ccccc2n1C1CCN(CCCC(c2ccc(F)cc2)c2ccc(F)cc2)CC1 [Pimozide] (2.5 µM),inactive: 0
12,CC(=O)Oc1ccc(/C=C/c2cc(OC(C)=O)cc(OC(C)=O)c2)cc1 [Triacetylresveratrol] (10 µM),inactive: 0
13,C/C=C(/C)C(=O)O[C@H]1[C@@H]2[C@H](C)C(=O)O[C@@H]2C[C@@H](C)[C@@H]2C=CC(=O)[C@]21C [Brevilin A] (2.5 µM),inactive: 0
14,O=[N+]([O-])/C=C/c1ccc2c(c1)OCO2 (2.5 µM),inactive: 0
15,O=C(O)c1nn(Cc2ccc(Cl)cc2Cl)c2ccccc12 [Lonidamine] (10 µM),inactive: 0
